These results are taken from PubChem BioAssay AID2685 (National Center for Advancing Translational Sciences (NCATS), 2010).

The nature of the test: qHTS Assay for Lipid Storage Modulators in Drosophila S3 Cells.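 For cell number change: cells counted by Cell Tracker Red CMTPX staining in the red channel.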 The settings on record: BODIPY lipid droplet fluorescence, 18-24 h; for cell number change: measured here: cell count max response, cells fed with added oleic acid. The essentials: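 Drosophila S3 cells loaded with oleic acid (400 uM, as added) and compounds at several concentrations; lipid droplets imaged by 488-nm laser-scanning cytometry, 500–530 nm intensity and object ratio to cell channel. Percent activity normalized to 20 uM Triacsin C.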
In general terms: In qHTS, concentration-response curves come from the screen itself.

Setting [1] is: measured here: lipid fluorescence (Fed channel) AC50, cells fed with added oleic acid.
Where [2] appears, read: measured here: cell number channel AC50, cells fed with added oleic acid.

This is one part of the list. These are further read-outs of the screen, such as a control signal, another cell line or another target. No call is given for them. Most of these compounds were active or inconclusive in the main read-out, so they are no random draw. Words in brackets tell the shape of the fitted curve; partial curves, single points and poor fits give uncertain potencies.

As usually defined, the AC50 is the concentration giving half of the maximal activity seen. Low values mean activity at low concentration, high ones activity only at high concentration. In the case of `CCC(Sc1nc2n[nH]c(C)c2c(=N)n1-c1cccc(Cl)c1)C(=O)NCCOC` (stereo unspecified), the cell number change is -19.1%. For the same compound, the AC50 under setting [1] was 29.1 µM [falling, single point].

Turning to `CCOc1ccccc1NC(=O)COC(=O)CSc1ccc(Cl)cc1`, the cell number change came out at 53.9%. Moreover, the AC50 under setting [2] was 20.6 µM [rising, single point]. Besides, the AC50 under setting [1] was 0.206 µM [rising, full curve, poor fit].

`Cc1c(Cl)cccc1NC(=S)N(Cc1ccccc1)Cc1cccnc1`: the cell number change was found to be 100%. In addition, under setting [2], the half-maximal activity concentration (AC50) is 16.4 µM [rising, partial curve, poor fit]. The AC50 under setting [1] is 6.51 µM [rising, partial curve, poor fit].

`COc1ccc2c(Cl)c(C(=O)NN3CCN(C)CC3)sc2c1`: the cell number change is -23.1%. Besides, the AC50 under setting [2] is 0.164 µM [falling, full curve, poor fit]. Further, the AC50 under setting [1] was 0.164 µM [falling, full curve, poor fit].

`CCOC(=O)c1cnc2cc(Cl)c(OC)cc2c1NCC1CCCO1` (stereo unspecified): the cell number change is -14.4%. Also, the AC50 under setting [1] is 4.61 µM [falling, full curve].

For `O=C(Nc1cccc([N+](=O)[O-])c1)N1CCCCCC1`, the cell number change is 3.18%. Also, the AC50 under setting [1] is 0.651 µM [rising, single point].

`Cc1cccc(NC(=O)CCN2C(=O)C3C4C=CC(C4)C3C2=O)c1` (stereo unspecified): the cell number change amounted to 17.3%. Moreover, under setting [1], the AC50 is 29.1 µM [falling, single point].

Take `Cc1c(Cl)ccc2c(C(=O)NCCN3CCCCC3)cc(-c3ccccn3)nc12`: the cell number change is 5.23%.

Regarding `CCOC(=O)N1CCN(C(=O)C2CCC(=O)N(Cc3ccc(Cl)cc3)C2)CC1` (stereo unspecified), the cell number change stood at 10.5%. For the same compound, the AC50 under setting [1] is 29.1 µM [rising, single point].

For `Cc1cccc(C)c1OCCN1CCCC1`, the cell number change came out at 4.42%.

Turning to `COc1cccc(-n2nnc3c(=O)n(CC(=O)N4CCCCC4)cnc32)c1`, the cell number change is 13.2%. Also, the AC50 under setting [1] was 2.06 µM [rising, single point].

Regarding `O=C1C2C3C=CC(C3)C2C(=O)N1/N=C/c1ccc(-c2ccccc2[N+](=O)[O-])o1` (stereo unspecified), under setting [2], the AC50 is 0.58 µM [rising, single point].

For the compound `COc1ccc2c(c1OC)C(=O)OC2CC(=O)c1ccc(O)cc1` (stereo unspecified), the AC50 under setting [1] is 0.0058 µM [rising, full curve, poor fit].

As for `CC(=O)c1cc(-c2ccccc2)n(CC(=O)NC2CCCCC2)c1C`, the cell number change is 4.21%. Besides, the AC50 under setting [1] is 6.51 µM [rising, single point].

As to `N#CC(c1ccc(Cl)cc1)(c1ncc(C(F)(F)F)cc1Cl)N1CCOCC1` (stereo unspecified), the cell number change turned out to be 30.7%. Also, under setting [1], the AC50 is 23.1 µM [rising, single point].

For the compound `CCCCN(CC)C(=O)c1n[nH]c(=O)c2ccccc12`, the AC50 under setting [1] is 0.0651 µM [falling, full curve].

`CCCCCC(=O)Nc1ccc(C(=O)COC(=O)CN2C(=O)NC3(CCCC3)C2=O)cc1`: the cell number change was -10.3%. Also, under setting [1], the AC50 was 6.51 µM [falling, single point].

On to `CC1=C(C(=O)N(C)C)C(c2ccc(C)s2)NC(=S)N1` (stereo unspecified), for which the cell number change was 4.98%. Further, under setting [1], the AC50 is 3.26 µM [rising, partial curve, poor fit].

For `COc1cc2c(cc1NC(=O)CSc1nnc(COc3ccc(Cl)cc3)n1C)oc1ccccc12`, the cell number change is -4.9%. Moreover, the AC50 under setting [1] was 0.0517 µM [rising, full curve, poor fit].

In the case of `CS(=O)(=O)N(Cc1ccccc1)c1ccccc1C(=O)Nc1ccccc1C(=O)NCc1ccco1`, the cell number change was 120%. Besides, the AC50 under setting [2] is 29.1 µM [rising, single point].

Regarding `Cc1ccc(-c2nc3ccccc3nc2-c2ccccc2)cc1`, the cell number change is -16%.

On to `CCN(CC)CCn1c(=S)[nH]c2cc3c(cc2c1=O)OCO3`, for which the cell number change was -11.2%. Moreover, the AC50 under setting [2] is 0.651 µM [falling, full curve, poor fit]. Further, under setting [1], the AC50 is 6.51 µM [falling, single point].

As for `Cc1nc2c(c(=O)n1Cc1ccccc1Cl)c1nc3ccccc3nc1n2Cc1ccco1`, the cell number change is -24.4%.

Regarding `COC(=O)[C@@H]1C[C@@]2(O)[C@@H](O)[C@@H](O)[C@@H](O)C[C@H]2N1Cc1ccc(C(F)(F)F)cc1`, the cell number change is -8.41%. Also, the AC50 under setting [1] was 6.51 µM [falling, single point].

As to `CC(C)c1ccc(NC(=O)c2cc(S(=O)(=O)NCC3COc4ccccc4O3)ccc2F)cc1` (stereo unspecified), the cell number change worked out at 19.5%.

Take `CCOc1ccccc1N(CC)C(=O)c1nn(C)c2c1CSc1ccccc1-2`: the cell number change was -7.46%.

With `OC(CCN1CCCC1)(c1ccccc1)C1CCCCC1` (stereo unspecified), the cell number change stood at 21.5%. Also, under setting [1], the concentration at half-maximal activity (AC50) was 0.00517 µM [rising, full curve, poor fit].

For the compound `Nc1nnc(-c2cn(-c3ccccc3)nc2-c2ccc(Cl)cc2)o1`, the cell number change was -22%. The AC50 under setting [1] is 16.4 µM [falling, single point].

For the compound `CCCNC(=O)Nc1ccc(F)c(Cl)c1`, the cell number change is -92%.

Regarding `O=C(CSc1n[nH]c(-c2ccccc2Br)n1)NC(=O)NCc1ccco1`, the cell number change worked out at 8.93%. Moreover, the AC50 under setting [1] is 0.291 µM [falling, full curve].

`O=S(=O)(NC1c2cccc3cccc(c23)C1N1CCN(CCO)CC1)c1ccccc1` (stereo unspecified): the cell number change was -15.7%. In addition, the AC50 under setting [1] was 6.51 µM [falling, single point].

Turning to `Cc1ccccc1C(=O)Nc1ccccc1-n1cccc1`, the cell number change came to 3.52%.

For `CCOn1c(=O)c(-c2ccc(Br)cc2)[n+]([O-])c2ccccc21`, the cell number change was determined as 17.7%. Further, the AC50 under setting [1] was 32.6 µM [rising, single point].

As to `COC(=O)c1ccc(-c2noc(CN(C)CCC3CCCCO3)n2)cc1` (stereo unspecified), the cell number change was -23.7%. Besides, the AC50 under setting [2] is 4.11 µM [falling, full curve, poor fit]. For the same compound, under setting [1], the AC50 is 29.1 µM [falling, single point].

Consider `CC(C)[C@H](NC(=O)c1ccccc1)C(=O)NCCc1ccccc1`, for which the cell number change was determined as 0.435%.

In the case of `COc1cccc(Oc2nc(-c3ccncc3)nc3ccccc23)c1`, the cell number change was -35.3%.

Turning to `CC(=O)Nc1ccccc1NC(=O)c1cccc2ccccc12`, the cell number change is 7.33%. Further, the AC50 under setting [1] is 2.06 µM [rising, partial curve, poor fit].

On to `COc1ccc(C2=NOC(C(=O)NCc3ccccn3)C2)cc1OC` (stereo unspecified), for which the cell number change turned out to be 73%. In addition, the AC50 under setting [2] was 25.9 µM [rising, single point].

Consider `COC(=O)C1=C(C)N(Cc2ccc(C)cc2)C(=O)/C1=C\c1ccc(O)c(OC)c1`, for which the cell number change was -20%. Under setting [1], the AC50 was 0.00651 µM [falling, full curve, poor fit].

Take `COc1ccc(NC(=O)Cc2csc(NC(=O)Nc3ccccc3OC)n2)c(OC)c1`: the AC50 under setting [2] is 1.64 µM [rising, partial curve] and the AC50 under setting [1] is 0.82 µM [rising, full curve].

For the compound `CCC(C)(C)NC(=O)C(c1cccs1)N(C(=O)c1ccn[nH]1)c1ccccc1` (stereo unspecified), the cell number change was determined as 30.1%. For the same compound, under setting [2], the AC50 was 25.9 µM [rising, single point].

For `O=C(CCNc1ccccc1)c1ccc2c(c1)OCO2`, the cell number change is -11.9%. The AC50 under setting [1] is 2.06 µM [rising, partial curve].

As to `COc1ccc2c(c1)cc(C(=O)N[C@H](C(=O)N1CCC(C(=O)O)CC1)C(C)C)n2C`, the cell number change was -0.236%. Further, under setting [1], the AC50 was 18.4 µM [rising, single point].

On to `COc1ccc(NC(=S)NCCNC(C)=O)cc1`, for which the cell number change was -38.9%. Moreover, the AC50 under setting [2] was 20 µM [falling, single point].

On to `Cc1ccc(S(=O)(=O)NCCSc2nnnn2-c2cc(C)ccc2C)cc1`, for which the cell number change is -8.71%. Moreover, under setting [1], the AC50 was 4.11 µM [rising, partial curve].

Take `Cc1[nH]c2ccccc2c1C(=O)C(=O)N1CC(C)OC(C)C1` (stereo unspecified): the cell number change is 25.6%.

On to `COc1cc(N2C(=O)CSC2=S)cc(OC)c1OC`, for which the cell number change was -5.56%.

With `CC(C)NC(=O)COC(=O)Cn1[nH]c(=O)c2ccccc2c1=O`, the cell number change is -1.98%. Besides, the AC50 under setting [2] is 0.0517 µM [falling, full curve, poor fit]. For the same compound, under setting [1], the AC50 is 16.4 µM [falling, partial curve].

Consider `O=C(Cc1cccs1)N1CCN(S(=O)(=O)c2ccc(Br)cc2)CC1`, for which the cell number change came to 30.6%. In addition, under setting [2], the AC50 was 14.6 µM [rising, partial curve, poor fit]. Moreover, the AC50 under setting [1] is 5.8 µM [falling, full curve].

For the compound `COc1cc(OC)c(C(=O)OCC(=O)NCC2CCCCC2)cc1OC`, the AC50 under setting [1] is 4.11 µM [rising, partial curve].

Regarding `CS(=O)(=O)NNC(=O)c1cc2cc3ccccc3nc2s1`, the cell number change amounted to 20%. Besides, the AC50 under setting [1] was 3.66 µM [rising, full curve].

Consider `COc1ccccc1-c1ccc(SCc2cccc(F)c2)nn1`, for which the cell number change came to 96%. For the same compound, under setting [2], the AC50 is 18.4 µM [rising, partial curve].

For the compound `CC12CCC(=O)N1C(C(=O)Nc1ccccc1N1CCCCC1)CS2` (stereo unspecified), the cell number change is -4.95%. For the same compound, under setting [1], the concentration at half-maximal activity (AC50) is 0.184 µM [falling, full curve, poor fit].

As for `Cc1ccc(CNCC2CCCO2)s1` (stereo unspecified), the AC50 runs as follows: under setting [2], 1.84 µM [rising, partial curve]; under setting [1], 1.03 µM [rising, partial curve].

On to `CCc1cc2c(=O)[nH]c(Cc3ccc(OC)cc3)nc2s1`, for which the cell number change is -2.36%. Further, under setting [1], the AC50 was 0.13 µM [rising, partial curve, poor fit].

With `Cn1c(=O)oc2cc(S(=O)(=O)NCCC(=O)N3CCN(c4ccccc4)CC3)ccc21`, the cell number change was -4.25%. Also, the AC50 under setting [1] is 6.51 µM [rising, single point].

With `O=C(O)c1cccc2c1C(=O)c1ccc(-c3ccc(F)cc3OCc3ccccc3)cc1S2(=O)=O`, the cell number change was -33.1%. Under setting [2], the AC50 was 20.6 µM [falling, single point]. Further, the AC50 under setting [1] is 0.116 µM [falling, single point].

As to `Cc1cc(OC(C)C)nc(-c2ccccc2O)n1`, the AC50 is 6.51 µM [rising, single point] under setting [2] and 0.116 µM [falling, full curve, poor fit] under setting [1].

Consider `O=C(COC(=O)C1=COCCO1)Nc1ccc(F)c(F)c1`, for which the cell number change amounted to 0.245%. Further, the AC50 under setting [1] is 25.9 µM [falling, partial curve, poor fit].

As to `O=C(CSc1nnc2ccccn12)NC(=O)c1ccccc1`, the cell number change was -32.4%. Besides, under setting [2], the AC50 is 1.3 µM [falling, full curve]. Besides, the AC50 under setting [1] was 1.46 µM [falling, full curve].

For `Cc1ccccc1NC(=O)Nc1nnc(CC(=O)NCc2ccccc2)s1`, the cell number change stood at 13.5%. Besides, the AC50 under setting [2] is 6.51 µM [rising, single point]. The AC50 under setting [1] is 1.03 µM [falling, full curve, poor fit].
